Source: PubChem BioAssay AID1259254 (NCATS, 2017)

- Screen: 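Finding genes that stop cells copying their DNA twice in one cycle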 (primary screen)
- Cell system: human HCT116 colorectal cancer cells
- Reagent: single siRNA against human genes
- Duration: 3 days
- Detection: 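Imaged Hoechst DNA stain sorts each cell into a cycle phase by DNA amount; per plate, G2 fraction set to 0% for non-targeting and 100% for GMNN siRNA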
- Direction: G2 robust z-score and G2 cells, % of GMNN control: higher = more G2 cells, more excess DNA replication; raw share of cells in G2: higher = larger share of cells with G2 DNA content
- Rule for the call: 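Active siRNAs have a G2 robust z of 5 or more median absolute deviations over the median, which in these data means about 38% or higher of GMNN control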
The deposit covers about 59,000 reagents; this is an unselected part. Of all reagents, about 1,550 (2.6%) are marked active. 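G2 share is only a proxy for re-replication; each gene was hit by three separate siRNAs, and active genes were retested.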 Raw values vary from plate to plate and are shown uncorrected. The numbers tell different reagents against one gene apart. The record does not give: the amount of reagent.

| gene | reagent | G2 robust z-score | G2 cells, % of GMNN control | raw share of cells in G2 (%) | outcome |
| --- | --- | --- | --- | --- | --- |
| IRF1 (interferon regulatory factor 1) | 1 | -0.406 | 0.109 | 5.08 | inactive |
| IRF1 (interferon regulatory factor 1) | 2 | 0.712 | 7.98 | 7.13 | inactive |
| IRF1 (interferon regulatory factor 1) | 3 | 0.88 | 9.16 | 9.17 | inactive |
| NPFF (neuropeptide FF-amide peptide precursor) | 1 | -1.21 | -5.55 | 3.31 | inactive |
| NPFF (neuropeptide FF-amide peptide precursor) | 2 | 0.0102 | 3.04 | 5.92 | inactive |
| NPFF (neuropeptide FF-amide peptide precursor) | 3 | -0.431 | -0.0675 | 4.68 | inactive |
| PATE2 (prostate and testis expressed 2) | 1 | 0.0634 | 3.41 | 6.21 | inactive |
| PATE2 (prostate and testis expressed 2) | 2 | 0.592 | 7.13 | 6.4 | inactive |
| PATE2 (prostate and testis expressed 2) | 3 | -0.11 | 2.19 | 4.39 | inactive |
| DRC4 (dynein regulatory complex subunit 4) | 1 | 0.394 | 5.74 | 7.99 | inactive |
| DRC4 (dynein regulatory complex subunit 4) | 2 | 1.71 | 15 | 9.58 | inactive |
| DRC4 (dynein regulatory complex subunit 4) | 3 | 5.09 | 38.8 | 18.7 | active |
| ARL6IP4 (ARF like GTPase 6 interacting protein 4) | 1 | 0.275 | 4.9 | 4.81 | inactive |
| ARL6IP4 (ARF like GTPase 6 interacting protein 4) | 2 | 0.284 | 4.97 | 5.38 | inactive |
| ARL6IP4 (ARF like GTPase 6 interacting protein 4) | 3 | -0.306 | 0.814 | 4.61 | inactive |
| ATXN7L1 (ataxin 7 like 1) | 1 | 0.68 | 7.75 | 5.67 | inactive |
| ATXN7L1 (ataxin 7 like 1) | 2 | -0.939 | -3.64 | 2.26 | inactive |
| ATXN7L1 (ataxin 7 like 1) | 3 | -0.657 | -1.66 | 2.56 | inactive |
| GABRD (gamma-aminobutyric acid type A receptor subunit delta) | 1 | -0.737 | -2.22 | 4.48 | inactive |
| GABRD (gamma-aminobutyric acid type A receptor subunit delta) | 2 | -0.563 | -0.992 | 4.45 | inactive |
| GABRD (gamma-aminobutyric acid type A receptor subunit delta) | 3 | 6.39 | 47.9 | 23.1 | active |
| DCUN1D4 (defective in cullin neddylation 1 domain containing 4) | 1 | 1.32 | 12.3 | 7.54 | inactive |
| DCUN1D4 (defective in cullin neddylation 1 domain containing 4) | 2 | -0.66 | -1.68 | 2.31 | inactive |
| DCUN1D4 (defective in cullin neddylation 1 domain containing 4) | 3 | 0.186 | 4.27 | 5.89 | inactive |
| DENND6A (DENN domain containing 6A) | 1 | -0.539 | -0.822 | 3.31 | inactive |
| DENND6A (DENN domain containing 6A) | 2 | 0.892 | 9.24 | 6.06 | inactive |
| DENND6A (DENN domain containing 6A) | 3 | -0.783 | -2.54 | 1.96 | inactive |
| SERPINB10 (serpin family B member 10) | 1 | -1.01 | -4.15 | 3.45 | inactive |
| SERPINB10 (serpin family B member 10) | 2 | 1.04 | 10.3 | 7.4 | inactive |
| SERPINB10 (serpin family B member 10) | 3 | 0.402 | 5.8 | 5.24 | inactive |
